Data taken from PubChem BioAssay AID504847 (National Center for Advancing Translational Sciences (NCATS), 2011).
Among all 400,000 compounds or so, about 3,700 (0.93%) were called active. The shares of active, inactive and inconclusive entries below differ from those in the screen. Calls follow the shape of the dose curve; as a rule, active = well fitted inhibition curve with a large enough effect; inconclusive = small, poorly fitted or top-dose-only effect, or another doubt; inactive = no such curve, though single readings can be large or run the other way. Potencies of inconclusive entries are doubtful fits and often do not repeat.

Amino acid sequences for entries named in this document (tags omitted).
UniProt P11473, whole entry, looked up: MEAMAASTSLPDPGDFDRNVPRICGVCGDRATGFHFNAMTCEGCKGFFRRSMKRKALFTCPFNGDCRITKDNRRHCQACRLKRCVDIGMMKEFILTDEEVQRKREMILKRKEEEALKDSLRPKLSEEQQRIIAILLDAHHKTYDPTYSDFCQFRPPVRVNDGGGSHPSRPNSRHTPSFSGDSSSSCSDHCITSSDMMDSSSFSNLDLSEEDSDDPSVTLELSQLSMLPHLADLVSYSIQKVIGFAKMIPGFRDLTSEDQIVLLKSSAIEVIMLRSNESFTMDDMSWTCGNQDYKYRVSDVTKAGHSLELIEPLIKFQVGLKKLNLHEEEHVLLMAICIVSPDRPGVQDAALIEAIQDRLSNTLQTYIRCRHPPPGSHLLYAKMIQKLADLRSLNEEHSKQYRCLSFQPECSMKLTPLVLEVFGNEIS

target: Vitamin D3 receptor (Homo sapiens) (UniProt P11473); test: Inhibitors of the vitamin D receptor (VDR): qHTS; settings: VDR-SRC2-3 peptide fluorescence polarization, 2 h; max response, negative = inhibition: stronger effect = lower value
Method in brief: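 Two reagent solutions held at 4 deg C in the dark were dispensed, compounds pinned at 23 nl, and the mixture incubated 2 h at room temperature. Read-out: fluorescence polarization of VDR–SRC2-3 peptide binding.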
% is scaled to controls: 0 for no effect and ±100 for the full control effect; potency is read from the fitted curve at half-maximal effect.

SMILES | Potency | max response, negative = inhibition
CC1CN(C(=O)CCC(=O)NCc2ccc(F)cc2)c2ccccc2S1 (centres undefined) | inconclusive: 63.1 µM [inhibitor, partial curve, poor fit] | 
COc1cccc(N2CCN(C(=O)c3ccc(CS(=O)c4ccccc4Cl)o3)CC2)c1 (centres undefined) | inconclusive: 89.1 µM [inhibitor, single point] | 
C=CCN1C(=O)C(O)(CC(=O)c2ccc(-n3cccc3)cc2)c2ccccc21 (centres undefined) | inconclusive: 56.2 µM [inhibitor, single point] | 
Oc1cccc(/C=N/Nc2ccc(Cl)nn2)c1 |  | inactive: -1.48%
O=C(CCCN1C(=O)/C(=C/c2ccc3c(c2)OCO3)SC1=S)Nc1ccc(C(=O)O)cc1 | inconclusive: 56.2 µM [inhibitor, partial curve, poor fit] | 
CN(C)S(=O)(=O)c1cccc(NC(=S)N/N=C/C2CC=CCC2)c1 (centres undefined) | inconclusive: 100 µM [inhibitor, single point] | 
O=C(O)CCN1C(=O)/C(=C/c2cn(-c3ccccc3)nc2-c2cccs2)SC1=S | inconclusive: 20 µM [inhibitor, full curve] | 
O=c1oc2ccccc2c(NC2CCCCC2)c1NS(=O)(=O)c1ccc(F)cc1 | inconclusive: 17.8 µM [inhibitor, single point] | 
CCC1=C(c2ccc(C)cc2)S(=O)(=O)N=C1N1CCC(C(=O)Nc2ccccc2C(=O)OC)CC1 |  | inactive: -3.12%
Cc1ccc(OCc2cc(C(=O)N(C)Cc3cnc4ccccn34)no2)cc1C | inconclusive: 39.8 µM [inhibitor, single point] | 
O=C(Nc1nccs1)[C@@H]1CCCN1S(=O)(=O)c1ccccc1F |  | inactive: 8.05%
CC1=NN(c2ccccc2)C(=O)/C1=C/c1cccc(C)c1 | active: 50.1 µM | 
Cc1ccc(NC(=O)C2CCN(C(=O)c3ccco3)CC2)cc1 |  | inactive: -12.5%
COc1ccc(CN(Cc2cc3ccc(C)cc3[nH]c2=O)Cc2nnnn2C2CCCC2)cc1 |  | inactive: 0.384%
Cc1nc2c3cc(F)ccc3n(Cc3ccccc3)c2s1 | active: 50.1 µM | 
CS(=O)(=O)Nc1nc2n(n1)C(c1ccccc1)C=C(c1ccc(Br)cc1)N2 (centres undefined) | inconclusive: 89.1 µM [inhibitor, single point] | 
Cc1ccc(S(=O)(=O)NCCCCCC(=O)Nc2ccccc2C)cc1 |  | inactive: 3.92%
Cc1ccc(C(=O)NCC(=O)N(C)CC(=O)Nc2ccccc2Br)s1 | inconclusive: 89.1 µM [inhibitor, single point] | 
CC(C)C[C@@H](CN)NC(=O)c1nc[nH]c1C(=O)N[C@@H](CC(C)C)C(=O)CNC[C@H](C)NC(=O)c1nc[nH]c1C(=O)N[C@@H](C)C(=O)O |  | inactive: -10.7%
Cc1cccc2c1N(CCCOc1ccccc1)C(=O)C2=O | active: 50.1 µM | 
COc1cccc(C2=CC(=O)CC(c3ccco3)C2)c1 (centres undefined) | inconclusive: 89.1 µM [inhibitor, partial curve, poor fit] | 
CC(=O)c1ccc(NC(=S)NC(=O)/C=C/c2ccco2)cc1 | inconclusive: 15.8 µM [inhibitor, partial curve, poor fit] | 
CC/C=C\C/C=C\C/C=C\C/C=C\C/C=C\C/C=C\CCC(=O)O[C@H](COCCCCCCCCCCCCCCCC)COP(=O)([O-])OCC[N+](C)(C)C | inconclusive: 50.1 µM [inhibitor, partial curve] | 

SMILES | Potency | max response, negative = inhibition
COC(=O)c1cc2oc3ccccc3c2n1Cc1cccc(C)c1 |  | inactive: -12.6%
Cc1nnnn1/C(=C\c1ccccc1)C(=O)OCC(=O)NC(C)(C)C | inconclusive: 50.1 µM [inhibitor, partial curve, poor fit] | 
COc1cc(/C=C2\SC(=O)N(CC(=O)Nc3cccc(C)c3)C2=O)cc([N+](=O)[O-])c1O | active: 70.8 µM | 
COc1ccccc1NC(=S)NNC(=S)Nc1ccc(OC(F)F)cc1 | inconclusive: 89.1 µM [inhibitor, single point] | 
Cc1sc2nc[nH]c(=S)c2c1-c1ccccc1 | active: 89.1 µM | 
Cc1nc2c(c(C)c1CCC(=O)Nc1cccc(C(F)(F)F)c1)c(=O)n(C)c(=O)n2C |  | inactive: -8.84%
O=C(CSc1nc2ccccc2c(=O)n1CC1CCCCC1)N1CCOCC1 | inconclusive: 0.794 µM [inhibitor, partial curve, poor fit] | 
CCOC(=O)N1CCN(C(=O)CSCc2ccccc2)CC1 | inconclusive: 10 µM [inhibitor, partial curve, poor fit] | 
CC1CC(NC(=O)Cc2ccc(Br)cc2)CC(C)(C)C1 (centres undefined) | inconclusive: 17.8 µM [inhibitor, partial curve, poor fit] | 
O=C(CN1C(=O)C(c2ccccc2)Oc2cccnc21)NCc1ccccc1F (centres undefined) | inconclusive: 31.6 µM [inhibitor, single point] | 
CC[C@H](C)[C@H]1CNC(=S)N1CC1CCN(CCC23CC4CC(CC(C4)C2)C3)CC1 | inconclusive: 112 µM [inhibitor, partial curve, poor fit] | 
CN(CCO)c1cc(Sc2nc3ccccc3s2)c2nonc2c1[N+](=O)[O-] | active: 25.1 µM | 
O=C1c2cccnc2-c2ncccc21 |  | inactive: 5.03%
Cc1nc(SC(C)C(=O)c2c(N)n(C)c(=O)n(C)c2=O)c2c(C)c(C)sc2n1 (centres undefined) |  | inactive: -5.66%
C/C(=C\c1ccccc1)CN1CCN(C)CC1 |  | inactive: -12.4%
COC1(OC)C(/C=C/c2ccc(Cl)cc2)C(C#N)(C#N)C1(OC)OC (centres undefined) | inconclusive: 89.1 µM [inhibitor, single point] | 
CCOC(=O)c1c(NC(=O)c2cc(CC)on2)sc(C)c1C | active: 79.4 µM | 
O=C(C=Cc1ccccn1)c1ccccc1O | active: 56.2 µM | 
CCCOc1ccccc1/C=C(\C#N)C(=O)Nc1cccc(C)n1 | inconclusive: 89.1 µM [inhibitor, single point] | 
O=S(=O)(c1ccccc1F)N1CCN(Cc2cc3c(cc2O)OCO3)CC1 | inconclusive: 89.1 µM [inhibitor, single point] | 
CC(C)c1ccc(/C=c2\sc3nc(-c4ccncc4)nn3c2=O)cc1 | active: 22.4 µM | 
O=c1onc2cnc3ccccc3n12 | inconclusive: 89.1 µM [inhibitor, partial curve, poor fit] | 
Cc1ccc(C)c(CN2C(=O)c3ccccc3S(=O)c3ccc(C(=O)NCc4ccccc4Cl)cc32)c1 (centres undefined) | inconclusive: 100 µM [inhibitor, single point] | 

SMILES | Potency | max response, negative = inhibition
O=C1ON=C(c2ccccc2)/C1=C/c1ccc(O)c(O)c1 | active: 44.7 µM | 
Cc1cc(O)c(C(=O)/C=C/c2ccccc2O)c(=O)o1 | inconclusive: 50.1 µM [inhibitor, partial curve, poor fit] | 
Clc1ccc(CCNc2nc3ccccc3c3nc(-c4ccccc4)nn23)cc1 | inconclusive: 89.1 µM [inhibitor, partial curve, poor fit] | 
COc1ccc(CNC(=O)COC(=O)c2ccc(C)c(S(=O)(=O)N3CCOCC3)c2)cc1 | inconclusive: 89.1 µM [inhibitor, partial curve, poor fit] | 
CCOc1ccc(C(=O)CSc2nnc(C3CC3)n2C)cc1 |  | inactive: -12.9%
Cc1c(NC(=O)c2cccc(F)c2)c(=O)n(-c2ccccc2)n1C |  | inactive: 2.65%
COC(=O)c1c(NC(=O)/C=C/C(=O)O)sc(Cc2ccccc2)c1C | inconclusive: 44.7 µM [inhibitor, partial curve, poor fit] | 
N/C(=N\OC(=O)c1cccc(Br)c1)c1ccc([N+](=O)[O-])cc1 | inconclusive: 100 µM [inhibitor, partial curve, poor fit] | 
Cc1cc(/C=N/n2cnnc2)c(C)n1-c1ccc(Cl)cc1 | inconclusive: 70.8 µM [inhibitor, partial curve, poor fit] | 
COc1cccc(CNc2ccc3[nH]c(=O)[nH]c3c2)c1OCc1ccccc1Cl |  | inactive: -10.5%
Cc1ccc(SC(=O)COc2ccccc2C)cc1 | inconclusive: 56.2 µM [inhibitor, partial curve, poor fit] | 
CC(=O)n1nc(-c2ccco2)nc1SCc1ccccc1 | inconclusive: 11.2 µM [inhibitor, partial curve, poor fit] | 
CC(C)c1ccc(Nc2nnns2)cc1 | active: 79.4 µM | 
CCn1nc(C)c(/C=N/NC(=O)Cn2nccc2C)c1C |  | inactive: 0.717%
COc1ccccc1-c1ccc(C(=O)O)o1 | inconclusive: 141 µM [inhibitor, partial curve] | 
Cc1ccccc1OCC(=O)NNC(=O)C1CCCCC1C(=O)O (centres undefined) | inconclusive: 12.6 µM [inhibitor, full curve, poor fit] | 
CCCCc1nc(SCCOC)c2c(=O)n(C)c(=O)n(C)c2n1 | inconclusive: 79.4 µM [inhibitor, single point] | 
Brc1ccc(CSc2nnc(-c3ccccn3)n2Cc2ccco2)cc1 |  | inactive: -11.4%
CCOC(=O)c1ccccc1NC(=O)COC(=O)c1cc([N+](=O)[O-])ccc1N1CCOCC1 | inconclusive: 89.1 µM [inhibitor, single point] | 
CNc1nc(-c2ccc([N+](=O)[O-])cc2)cs1 |  | inactive: 9.45%
Cc1cc(-n2c(C)cc(C(=O)COc3ccc4ccc(=O)oc4c3)c2C)no1 |  | inactive: -20.5%
O=S(=O)(Nc1cccc2ccccc12)c1ccc2ccccc2c1 | inconclusive: 89.1 µM [inhibitor, single point] | 
CCC1CC=CC2C1C(=O)N(Cc1ccccc1)C2c1cccc([N+](=O)[O-])c1 (centres undefined) | inconclusive: 89.1 µM [inhibitor, single point] | 

Random excerpt: two entries already listed
SMILES | Potency | max response, negative = inhibition
O=S(=O)(Nc1cccc2ccccc12)c1ccc2ccccc2c1 | inconclusive: 89.1 µM [inhibitor, single point] | 
CCC1=C(c2ccc(C)cc2)S(=O)(=O)N=C1N1CCC(C(=O)Nc2ccccc2C(=O)OC)CC1 |  | inactive: -3.12%
